The values that follow come from PubChem BioAssay AID2685 (National Center for Advancing Translational Sciences (NCATS), 2010).

SMILES strings stand for the structures. Some of the results follow. The main result of the screen is listed elsewhere. These columns were measured beside it and carry no call. Most of these compounds were active or inconclusive in the main read-out, so they are no random draw. Potencies come from curve fits of mixed quality, noted in brackets.

The nature of this experiment: qHTS Assay for Lipid Storage Modulators in Drosophila S3 Cells.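 On cell number change: cells counted by Cell Tracker Red CMTPX staining in the red channel.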 To be noted: BODIPY lipid droplet fluorescence, 18-24 h; for cell number change: measured here: cell count max response, cells fed with added oleic acid. A digest of the protocol:
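Laser-scanning cytometry quantifies lipid droplet accumulation (500–530 nm total intensity; droplet/cell object ratio) in oleic acid-fed (400 uM added) Drosophila S3 cells treated with a concentration series. 20 uM Triacsin C defined 100% inhibition.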

Setting [1] is: measured here: cell number channel AC50, cells fed with added oleic acid.
The mark [2] stands for this setting: measured here: lipid fluorescence (Fed channel) AC50, cells fed with added oleic acid.

Turning to `CN1CCN(CC(=O)Nc2c(C(=O)c3ccccc3)oc3ccccc23)CC1`, the cell number change was 34.9%. Under setting [1], the AC50 was 731 nM [rising, full curve, poor fit].

For the compound `COc1ccc(-c2cc(C(=O)N3CCN(c4ccc(F)cc4)CC3)no2)cc1`, the cell number change turned out to be 22.1%. The AC50 under setting [2] was 11600 nM [falling, single point].

On to `CCN1CCN(CC(O)COc2ccc(C(C)=O)cc2)CC1` (configuration not stated), for which the cell number change was 20%.

Regarding `O=C(CSCc1ccccc1)Nc1cccc(C(=O)Nc2ccccc2C(=O)O)c1`, the cell number change turned out to be 17.6%.

Consider `CC(Sc1nnc(-c2cccnc2)o1)C(=O)NC1CCCC1` (configuration not stated), for which the cell number change turned out to be 4.9%. Also, the AC50 under setting [2] was 23100 nM [rising, partial curve].

On to `Cc1ccc(NC(=O)C2CCN(S(=O)(=O)c3ccc4c(c3)NC(=O)C(C)S4)CC2)cc1C` (configuration not stated), for which the cell number change is -5.66%. The AC50 under setting [2] was 6510 nM [falling, single point].

Regarding `CCOCCCNC(=O)c1cc(=O)n(Cc2cccc(C)c2)c2ccccc12`, the cell number change is 117%. The AC50 under setting [1] is 29100 nM [rising, single point].

Consider `CCCCc1ccc(CC(=O)O)cc1`, for which the cell number change amounted to 4.03%.

For the compound `Cc1nn(C(C)C(=O)c2cccc(Cl)c2)c(C)c1[N+](=O)[O-]` (configuration not stated), the cell number change was -14.8%.

Consider `Cc1cccc(N(Cc2ccccc2)C(=O)c2ccc(F)c(S(=O)(=O)N3CCOCC3)c2)c1`, for which the cell number change turned out to be 41.8%. Besides, under setting [1], the half-maximal activity concentration (AC50) was 2910 nM [rising, partial curve].

In the case of `CC(C)(C)NC(=O)COC(=O)/C=C/c1ccccc1[N+](=O)[O-]`, the cell number change was -8.41%. Moreover, the AC50 under setting [1] is 1640 nM [falling, partial curve]. Under setting [2], the AC50 was 130 nM [falling, full curve, poor fit].

Turning to `CN(C)c1nc(N)nc(CSc2n[nH]c(-c3ccccc3)n2)n1`, the cell number change worked out at 14.2%. Besides, the AC50 under setting [2] was 6510 nM [rising, single point].

With `N#Cc1nc(COc2ccc(Cl)cc2)oc1N1CCCC1`, the AC50 under setting [2] was 2060 nM [falling, full curve].

In the case of `Cc1ccc(OC(C)C(=O)N2CCCc3ccccc32)cc1` (configuration not stated), the cell number change worked out at 14.2%.

On to `Cc1cccc(-n2c(SCc3ccc(C#N)cc3)nnc2-c2c[nH]c3ccccc23)c1`, for which the AC50 under setting [2] is 116 nM [falling, full curve, poor fit].

As for `Cc1cc(C(=O)OCC(=O)NCc2cccs2)c2ccccc2n1`, the cell number change is -22.5%. Besides, under setting [1], the AC50 is 6510 nM [rising, partial curve, poor fit].

Take `COc1cccc2[nH]c3c(N4CCCC(C)C4)ncnc3c12` (configuration not stated): the cell number change was -15.9%. The AC50 under setting [2] was 820 nM [rising, single point].

For the compound `CC(=O)OC1CC[C@@]2(C)C(CCC3C2CC(=O)[C@@]2(C)C3CC3CC(C)=CC(=O)C32)C1` (some centres not stated), the cell number change was found to be 7.18%.

For the compound `Cc1ccc(C(=O)N/N=C/c2nc3ccccc3n2C)cc1`, the cell number change worked out at 6.24%.

On to `COC(=O)c1cc(Br)c(=O)n(CCN2CCCCC2)c1`, for which the cell number change was found to be 1.23%. Moreover, the AC50 under setting [2] was 5.8 nM [falling, full curve, poor fit].
